Assay results: paper PMC8584032
Results are given in words; binding and its absence hold for the method and conditions named. For some of these results: In cells and extracts the contact can be indirect. Some binding calls cover weakened binding; strength is not graded here. For some of these results: Sequences can lack the tags named with a protein. Blank lines part the entries; values can stand above or below the molecule they belong to.

Protein sequences, listed by entry. Tags and fused reporters are not part of them.
UniProt Q9SXZ2: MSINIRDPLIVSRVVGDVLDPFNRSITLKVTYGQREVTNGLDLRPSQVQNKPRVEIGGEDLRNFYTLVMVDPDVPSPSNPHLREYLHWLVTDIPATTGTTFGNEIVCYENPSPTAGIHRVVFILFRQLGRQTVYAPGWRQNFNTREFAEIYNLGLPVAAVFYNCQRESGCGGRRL

How the values were obtained:
[1] = target: T1, AtVDAC1, BiFC fusion in pDOE-03 (Arabidopsis thaliana) (UniProt Q9SRH5); assay: split reporter; BiFC with mVenus fragments (pDOE-03 vector) in Arabidopsis protoplasts
T1 sequence: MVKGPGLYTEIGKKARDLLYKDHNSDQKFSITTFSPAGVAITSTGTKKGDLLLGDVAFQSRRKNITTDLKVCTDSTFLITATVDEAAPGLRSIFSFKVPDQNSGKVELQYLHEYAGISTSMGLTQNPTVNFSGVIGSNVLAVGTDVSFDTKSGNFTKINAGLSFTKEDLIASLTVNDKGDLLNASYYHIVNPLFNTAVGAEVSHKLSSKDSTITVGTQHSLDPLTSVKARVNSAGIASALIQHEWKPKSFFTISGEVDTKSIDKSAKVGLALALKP

[2] = target: T2, AtVDAC1, bait of the yeast two-hybrid screening (Arabidopsis thaliana) (UniProt Q9SRH5); assay: two-hybrid; yeast two-hybrid screening for interacting partners of AtVDAC1; library and vectors not described
T2 sequence: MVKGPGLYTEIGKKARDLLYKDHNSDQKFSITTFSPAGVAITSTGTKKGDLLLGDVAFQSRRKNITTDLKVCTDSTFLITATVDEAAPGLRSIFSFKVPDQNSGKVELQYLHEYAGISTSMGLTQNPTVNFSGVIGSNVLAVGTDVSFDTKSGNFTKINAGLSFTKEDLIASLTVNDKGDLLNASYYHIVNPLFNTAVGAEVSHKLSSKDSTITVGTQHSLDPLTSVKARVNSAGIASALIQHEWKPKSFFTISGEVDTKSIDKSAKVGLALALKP

[3] = target: T3, cLUC-AtVDAC1 (Arabidopsis thaliana) (UniProt Q9SRH5); assay: split reporter; luciferase complementation imaging (LCI); FT-nLUC and cLUC-AtVDAC1 transiently infiltrated into N. benthamiana leaves; luminescence detected with ROPER CA2048B; three biological replicates
T3 sequence: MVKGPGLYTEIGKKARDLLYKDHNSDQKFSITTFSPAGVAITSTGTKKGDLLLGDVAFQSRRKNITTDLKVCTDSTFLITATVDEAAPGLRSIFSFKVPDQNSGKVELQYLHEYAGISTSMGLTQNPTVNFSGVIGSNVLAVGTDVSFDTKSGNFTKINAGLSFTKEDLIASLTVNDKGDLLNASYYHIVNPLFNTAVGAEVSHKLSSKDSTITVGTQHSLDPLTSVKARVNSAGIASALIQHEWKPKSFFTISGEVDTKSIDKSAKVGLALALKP

[4] = target: FLOWERING LOCUS T (FT), in pGBKT7 (Arabidopsis thaliana) (UniProt Q9SXZ2); assay: two-hybrid; AtVDAC1 in pGADT7, FT in pGBKT7; Yeastmaker Yeast Transformation System 2 (Clontech); growth on SD/-Ade/-His/-Leu/-Trp; performed three times

binding [1]: binds
Molecule: FT, BiFC fusion in pDOE-03 (from UniProt Q9SXZ2 1-175)

binding [2]: binds
Molecule: FT, interactor found in the yeast two-hybrid screening (from UniProt Q9SXZ2 1-175)

binding [3]: binds
Molecule: FT-nLUC (from UniProt Q9SXZ2 1-175)

binding [4]: binds
B1: AtVDAC1 (Arabidopsis thaliana voltage-dependent anion channel 1), in pGADT7 (protein, UniProt Q9SRH5 1-276)
chain: MVKGPGLYTEIGKKARDLLYKDHNSDQKFSITTFSPAGVAITSTGTKKGDLLLGDVAFQSRRKNITTDLKVCTDSTFLITATVDEAAPGLRSIFSFKVPDQNSGKVELQYLHEYAGISTSMGLTQNPTVNFSGVIGSNVLAVGTDVSFDTKSGNFTKINAGLSFTKEDLIASLTVNDKGDLLNASYYHIVNPLFNTAVGAEVSHKLSSKDSTITVGTQHSLDPLTSVKARVNSAGIASALIQHEWKPKSFFTISGEVDTKSIDKSAKVGLALALKP
